Results are given in words; binding and its absence hold for the method and conditions named. Some results given as binding are weak or reduced against the parent protein; the word gives no strength.
Target: hGPC-3 (BioLegend) (human) (UniProt P51654)
Test: ELISA, hGPC-3 coated

By UniProt entry, the sequences of proteins in these tests, tags left out. Residues count along the entry.
UniProt P51654, residues 25-559: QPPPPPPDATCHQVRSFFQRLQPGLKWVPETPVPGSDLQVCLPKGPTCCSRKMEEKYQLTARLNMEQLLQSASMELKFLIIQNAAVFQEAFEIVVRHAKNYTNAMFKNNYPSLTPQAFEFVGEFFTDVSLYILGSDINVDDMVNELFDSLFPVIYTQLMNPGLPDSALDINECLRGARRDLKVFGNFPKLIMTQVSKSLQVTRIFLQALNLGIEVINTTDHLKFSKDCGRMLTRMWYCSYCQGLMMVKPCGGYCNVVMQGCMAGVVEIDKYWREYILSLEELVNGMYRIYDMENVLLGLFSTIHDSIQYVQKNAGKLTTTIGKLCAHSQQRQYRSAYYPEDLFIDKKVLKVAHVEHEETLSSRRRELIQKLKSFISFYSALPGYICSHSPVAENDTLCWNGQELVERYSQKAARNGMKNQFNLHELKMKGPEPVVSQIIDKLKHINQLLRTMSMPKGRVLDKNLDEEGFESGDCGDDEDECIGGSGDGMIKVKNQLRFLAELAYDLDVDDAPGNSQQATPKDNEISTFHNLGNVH

B1: aGPC-3 (antibody, human IgG1, kappa, V domains shown)
VH: QVQLVQSGAEVKKPGASVKVSCKASGYTFTDYEMHWVRQAPGQGLEWMGALDPKTGDTAYSQKFKGRVTLTADKSTSTAYMELSSLTSEDTAVYYCTRFYSYTYWGQGTLVTVSS
VL: DVVMTQSPLSLPVTPGEPASISCRSSQSLVHSNRNTYLHWYLQKPGQSPQLLIYKVSNRFSGVPDRFSGSGSGTDFTLKISRVEAEDVGVYYCSQNTHVPPTFGQGTKLEIKR
- binding: binds
